{"source": "patent US20250066425A1", "about": "(priority 2022, published 2025)", "test": "peptide synthesis", "conditions": "whole synthesis", "note": "No end group written: not given here."}
{"sequence": "RKKRRQRRRFQGQYFHSRQYKHPVGYEGK", "values": [{"measurement": "final HPLC purity", "result": 95.694, "unit": "%"}]}
